PubChem BioAssay AID1259308 | NCATS | 2017
Assay: 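Knock-downs that increase output of a recombinant reporter protein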 (primary screen). System: human HEK293 embryonic kidney cells stably expressing firefly luciferase (HEK-CMV-Luc2-Hygro). Reagents: single siRNA against human genes, 0.8 pmol siRNA per well. Timing: 72 h. Measurement: 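Luciferase light (ONE-Glo) measured on one replicate plate set and viability (CellTiter-Glo) on the other, scaled to a negative control siRNA, with robust z-scores and luciferase per cell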. Scale: total luciferase, z-score and total luciferase, % of control: higher = more reporter protein produced; luciferase per cell, z-score: higher = more reporter output per viable cell; viable cells, % of control: higher = more viable cells. Rule for the call: 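Active when the median/MAD z-score for overall luciferase is greater than 3; a gene was taken forward for validation with new siRNAs if at least two of its three siRNAs passed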. Meaning of the calls: active = raised luciferase; inactive = no rise.
Here is one part, drawn at random, of about 59,000 reagents tested. In the full data, about 1,510 (2.6%) got an active call. 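Calls use total luciferase alone and ignore viability, so some active siRNAs may act by altering cell number.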 Entries without a mark were called inactive.

Gene | PubChem SID | total luciferase, z-score | total luciferase, % of control | luciferase per cell, z-score | viable cells, % of control
TMPRSS11E | SID160738926 | 0.411 | 90.1 | 0.306 | 92.8
TMPRSS11E | SID160738927 | -0.211 | 77.7 | -0.7 | 104
TMPRSS11E | SID160738928 | -0.103 | 79.8 | 1.64 | 57.9
OR7E24 | SID160732876 | 1.38 | 109 | 0.995 | 94.1
OR7E24 | SID160732877 | 0.0396 | 82.7 | 0.222 | 87.1
OR7E24 | SID160738124 | 1.24 | 107 | 1.11 | 88.9
NCLN | SID160745317 | 2.45 | 131 | 0.791 | 118
NCLN | SID160745318 | 1.63 | 114 | 1.33 | 90
NCLN | SID160745319 | 0.22 | 86.3 | 0.107 | 93.7
SLC36A2 | SID160759306 | -0.032 | 81.2 | -0.959 | 117
SLC36A2 | SID160759307 | -0.604 | 69.9 | -1.03 | 102
SLC36A2 | SID160759308 | -0.0474 | 80.9 | 0.809 | 73.1
SPIRE2 | SID160752319 | -0.845 | 65.1 | -0.616 | 85.5
SPIRE2 | SID160752320 | 1.87 | 119 | 0.999 | 102
SPIRE2 | SID160752321 | -2.01 | 42 | -1.47 | 69.1
SLC7A9 | SID160730018 | -0.865 | 64.7 | -0.896 | 91.5
SLC7A9 | SID160730020 | -0.0981 | 79.9 | -0.657 | 106
SLC7A9 | SID160730021 | -1.46 | 52.9 | -1.6 | 90.2
ALMS1 | SID160719391 | -0.102 | 79.9 | 0.132 | 86.2
ALMS1 | SID160719392 | 5.46 (active) | 190 | 4.87 | 59
ALMS1 | SID160719393 | -0.135 | 79.2 | -0.602 | 104
CHST10 | SID160756450 | -0.358 | 74.8 | -0.161 | 87.2
CHST10 | SID160756551 | 1.86 | 119 | 2.35 | 71.5
CHST10 | SID160756650 | -0.744 | 67.1 | -0.704 | 90.2
ARRDC3 | SID160746276 | 0.698 | 95.8 | 0.995 | 82.3
ARRDC3 | SID160746277 | -0.436 | 73.2 | -0.945 | 105
ARRDC3 | SID160746278 | -1.2 | 58.1 | -1.21 | 89.2
DPYSL3 | SID160756157 | 1.73 | 116 | 1.39 | 90.1
DPYSL3 | SID160756168 | -0.858 | 64.8 | -0.869 | 91
DPYSL3 | SID160756178 | -0.693 | 68.1 | -0.492 | 86.6
LOC729681 | SID160773050 | -0.266 | 76.6 | -0.228 | 90.9
LOC729681 | SID160773052 | -0.514 | 71.7 | -0.00423 | 80.2
LOC729681 | SID160773053 | 1.22 | 106 | 1.61 | 77.5
SEC24B | SID160728396 | 0.876 | 99.3 | 0.537 | 96.3
SEC24B | SID160728397 | -0.964 | 62.7 | -0.651 | 83.2
SEC24B | SID160728398 | -0.981 | 62.4 | -1.49 | 103
DMAC2L | SID160738385 | -1.52 | 51.6 | -0.84 | 72
DMAC2L | SID160738386 | -0.71 | 67.8 | 0.052 | 74.7
DMAC2L | SID160738387 | -0.372 | 74.5 | -0.715 | 100
RGPD2 | SID160773235 | 0.0134 | 82.2 | -0.132 | 95.1
RGPD2 | SID160773236 | -0.757 | 66.8 | -0.672 | 89.1
RGPD2 | SID160773237 | 1.41 | 110 | 0.791 | 99.7
CYP2D6 | SID160751554 | -0.161 | 78.7 | -0.863 | 110
CYP2D6 | SID160751564 | -0.198 | 77.9 | -0.571 | 101
CYP2D6 | SID160751574 | -0.0958 | 80 | -0.645 | 106
CYP2S1 | SID160739171 | -2.08 | 40.6 | -2.26 | 82.2
CYP2S1 | SID160739172 | 0.351 | 88.9 | 0.721 | 82.1
CYP2S1 | SID160739173 | -0.982 | 62.3 | -0.509 | 79.7
SLC25A31 | SID160731987 | 1.94 | 121 | 1.03 | 103
SLC25A31 | SID160751120 | 0.926 | 100 | -0.181 | 118
SLC25A31 | SID160751121 | -0.324 | 75.4 | -0.875 | 106
OR2AG1 | SID160732518 | -1.19 | 58.2 | -0.374 | 71.7
OR2AG1 | SID160758102 | -1.22 | 57.5 | -0.927 | 82.1
OR2AG1 | SID160758103 | -0.308 | 75.8 | -0.67 | 101
SLC38A2 | SID160774708 | -0.253 | 76.9 | 0.0379 | 85
SLC38A2 | SID160774719 | 0.306 | 88 | 0.706 | 81.6
SLC38A2 | SID160774730 | -1.44 | 53.3 | -0.398 | 66.2
ZBED4 | SID160723352 | 0.12 | 84.3 | -0.329 | 103
ZBED4 | SID160723353 | 1.4 | 110 | 1.55 | 81.6
ZBED4 | SID160723354 | 0.31 | 88 | 0.343 | 89.9
GNG2 | SID160741628 | 0.164 | 85.1 | -0.421 | 106
GNG2 | SID160741629 | 0.755 | 96.9 | -0.117 | 112
GNG2 | SID160741630 | -0.381 | 74.3 | -0.511 | 95
SELENOM | SID160757802 | -0.987 | 62.3 | 0.133 | 67.2
SELENOM | SID160757803 | -0.591 | 70.1 | -0.911 | 99.6
SELENOM | SID160757804 | -0.0683 | 80.5 | 0.028 | 89.3
KCNH6 | SID160750671 | -0.399 | 74 | -1.07 | 110
KCNH6 | SID160750672 | 1.49 | 112 | 1.02 | 95.2
KCNH6 | SID160750673 | -0.582 | 70.3 | -0.736 | 95.4
MDH1 | SID160777082 | -1.17 | 58.5 | -1 | 85.2
MDH1 | SID160777084 | -0.0393 | 81.1 | -0.408 | 101
MDH1 | SID160777085 | 0.672 | 95.3 | 0.293 | 98.5
FKRP | SID160724546 | 1.95 | 121 | 1.14 | 99.9
FKRP | SID160748694 | 1.29 | 108 | 0.34 | 110
FKRP | SID160748695 | -1.13 | 59.4 | -1.44 | 96.9

Reagents above marked active:
Gene | PubChem SID | total luciferase, z-score | total luciferase, % of control | luciferase per cell, z-score | viable cells, % of control
ALMS1 | SID160719392 | 5.46 (active) | 190 | 4.87 | 59
